US12440473B2 (priority 2019, dated 2025)

Test system: diet-induced obese mice
Assay: Diet-induced obese mice on high fat diet, daily oral gavage for 12 weeks
Settings: Baseline (Day 1), HFD mice

Compound: CCCCCCCCCCCCCCCCC(=O)O [C17:0, heptadecanoic acid]
- Cholesterol (5 mg/kg dose group): 152 ± 23 mg/dL
- Glucose, 6 h fasted (5 mg/kg dose group): 200 ± 23 mg/dL
- Insulin, non-fasting (5 mg/kg dose group): 5.8 ± 3.1 ng/mL
- Cholesterol (50 mg/kg dose group): 144 ± 20 mg/dL
- Glucose, 6 h fasted (50 mg/kg dose group): 196 ± 22 mg/dL
- Insulin, non-fasting (50 mg/kg dose group): 6.1 ± 2.2 ng/mL

Compound: CCCCCCCCCCCCCCC(=O)O [C15:0, pentadecanoic acid]
- Cholesterol (5 mg/kg dose group): 153 ± 20 mg/dL
- Glucose, 6 h fasted (5 mg/kg dose group): 189 ± 46 mg/dL
- Insulin, non-fasting (5 mg/kg dose group): 7.0 ± 4.1 ng/mL
